PubChem BioAssay AID652272 | Drosophila RNAi Screening Center | 2013

Assay: 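Genome-wide knock-down search for components of Hedgehog signalling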 (primary screen)
Cell system: Drosophila clone 8 (Cl8) cells
Reagent: long dsRNA against Drosophila genes
Measured: 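Plate reader light from a firefly reporter under a ptc promoter fragment that responds to Hedgehog, with Renilla light as transfection reference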
Direction: firefly Hh reporter signal: higher = more ptc reporter light; Renilla reference signal: higher = more Renilla control light
Rule for the call: 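Called a hit if the two-replicate mean z-score lies below -2 or above +3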
Meaning of the calls: active = hit: reporter lowered or raised; inactive = not a hit
The screen tested about 21,000 reagents; shown is an unselected part of those with a known target gene and a result. Of all reagents, 503 (2.4%) are marked active. 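Raw plate light values, not normalised; calls rest on replicate z-scores that were not deposited; hits include reporter decreases as well as increases.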 A number with no mark means an inactive call. The record does not give: the amount of reagent, the time to read-out.

CG12391 [SID104185939] gave firefly Hh reporter signal, replicate 1 = 61408; firefly Hh reporter signal, replicate 2 = 66617; Renilla reference signal, replicate 1 = 2800; Renilla reference signal, replicate 2 = 2423. DJ-1alpha [SID104186797] scored firefly Hh reporter signal, replicate 1 = 1.09e5; firefly Hh reporter signal, replicate 2 = 78724; Renilla reference signal, replicate 1 = 2581; Renilla reference signal, replicate 2 = 5244. DIP-zeta [SID104181995] scored firefly Hh reporter signal, replicate 1 = 1.25e5; firefly Hh reporter signal, replicate 2 = 84683; Renilla reference signal, replicate 1 = 3046; Renilla reference signal, replicate 2 = 6723. After knock-down of DIP-zeta [SID104181996], the screen gave firefly Hh reporter signal, replicate 1 = 1.30e5; firefly Hh reporter signal, replicate 2 = 98203; Renilla reference signal, replicate 1 = 3193; Renilla reference signal, replicate 2 = 8016. Knock-down of DIP-zeta [SID104181997] came out at: firefly Hh reporter signal, replicate 1 = 88530; firefly Hh reporter signal, replicate 2 = 46571; Renilla reference signal, replicate 1 = 2389; Renilla reference signal, replicate 2 = 4353. CG42671 [SID104188885] showed firefly Hh reporter signal, replicate 1 = 2.97e5; firefly Hh reporter signal, replicate 2 = 75591; Renilla reference signal, replicate 1 = 3140; Renilla reference signal, replicate 2 = 3140.

Depletion of CG42671 [SID104190113] resulted in: firefly Hh reporter signal, replicate 1 = 59729; firefly Hh reporter signal, replicate 2 = 51251; firefly Hh reporter signal, replicate 3 = 52521; Renilla reference signal, replicate 1 = 4964; Renilla reference signal, replicate 2 = 3755. After knock-down of CG12868 [SID104185999] the results were firefly Hh reporter signal, replicate 1 = 85894; firefly Hh reporter signal, replicate 2 = 43632; Renilla reference signal, replicate 1 = 2211; Renilla reference signal, replicate 2 = 2743. Knock-down of Trxr1 [SID104198460] resulted in: firefly Hh reporter signal, replicate 1 = 1.05e5; firefly Hh reporter signal, replicate 2 = 1.01e5; Renilla reference signal, replicate 1 = 2185; Renilla reference signal, replicate 2 = 2320. prel [SID104187063] showed firefly Hh reporter signal, replicate 1 = 78725; firefly Hh reporter signal, replicate 2 = 75296; Renilla reference signal, replicate 1 = 3585; Renilla reference signal, replicate 2 = 3129. After knock-down of Prosalpha6 [SID104183193], the screen gave firefly Hh reporter signal, replicate 1 = 41707 (active); firefly Hh reporter signal, replicate 2 = 27911; Renilla reference signal, replicate 1 = 1767; Renilla reference signal, replicate 2 = 3718.

Records listed so far called active, once more:
Prosalpha6 [SID104183193] — firefly Hh reporter signal, replicate 1 = 41707 (active); firefly Hh reporter signal, replicate 2 = 27911; Renilla reference signal, replicate 1 = 1767; Renilla reference signal, replicate 2 = 3718

Further reagents:
CG13708 [SID104188109] scored firefly Hh reporter signal, replicate 1 = 72387; firefly Hh reporter signal, replicate 2 = 46404; Renilla reference signal, replicate 1 = 7383; Renilla reference signal, replicate 2 = 3394. CG18231 [SID104190099] scored firefly Hh reporter signal, replicate 1 = 83680; Renilla reference signal, replicate 1 = 3370; Renilla reference signal, replicate 2 = 2487. With knock-down of CG5895 [SID104190346] the results were firefly Hh reporter signal, replicate 1 = 1.37e5; Renilla reference signal, replicate 1 = 1824; Renilla reference signal, replicate 2 = 4085. With knock-down of Vps4 [SID104199130], the screen gave firefly Hh reporter signal, replicate 1 = 80160; firefly Hh reporter signal, replicate 2 = 65030; Renilla reference signal, replicate 1 = 2420; Renilla reference signal, replicate 2 = 2105. Silencing of Rchy1 [SID104182334] gave: firefly Hh reporter signal, replicate 1 = 52889; firefly Hh reporter signal, replicate 2 = 23764; Renilla reference signal, replicate 1 = 1072; Renilla reference signal, replicate 2 = 3045. Depletion of mib1 [SID104190342] resulted in: firefly Hh reporter signal, replicate 1 = 1.11e5; Renilla reference signal, replicate 1 = 2071; Renilla reference signal, replicate 2 = 3420.

Against CG30116 [SID104185727] the deposit lists firefly Hh reporter signal, replicate 1 = 1.04e5; firefly Hh reporter signal, replicate 2 = 70421; Renilla reference signal, replicate 1 = 4387; Renilla reference signal, replicate 2 = 2933. Against CG30116 [SID104186477] the deposit lists firefly Hh reporter signal, replicate 1 = 1.20e5; firefly Hh reporter signal, replicate 2 = 61633; Renilla reference signal, replicate 1 = 3302; Renilla reference signal, replicate 2 = 4579. Depletion of CG6638 [SID104190472] came out at: firefly Hh reporter signal, replicate 1 = 43543; firefly Hh reporter signal, replicate 2 = 51312; Renilla reference signal, replicate 1 = 5249; Renilla reference signal, replicate 2 = 4198. Knock-down of CG17612 [SID104180297] resulted in: firefly Hh reporter signal, replicate 1 = 1.10e5; firefly Hh reporter signal, replicate 2 = 1.23e5; Renilla reference signal, replicate 1 = 4841; Renilla reference signal, replicate 2 = 4540. Silencing of CG14422 [SID104197711] resulted in: firefly Hh reporter signal, replicate 1 = 1.34e5; firefly Hh reporter signal, replicate 2 = 3.67e5; Renilla reference signal, replicate 1 = 4727; Renilla reference signal, replicate 2 = 14256. Ir84a [SID104192302] gave firefly Hh reporter signal, replicate 1 = 48632; firefly Hh reporter signal, replicate 2 = 92195; Renilla reference signal, replicate 1 = 1521; Renilla reference signal, replicate 2 = 2593.

For osk [SID104196815] the deposit lists firefly Hh reporter signal, replicate 1 = 1.25e5; firefly Hh reporter signal, replicate 2 = 69481; Renilla reference signal, replicate 1 = 4592; Renilla reference signal, replicate 2 = 2909. CG14631 [SID104197584] scored firefly Hh reporter signal, replicate 1 = 97309; firefly Hh reporter signal, replicate 2 = 2.99e5; Renilla reference signal, replicate 1 = 2649; Renilla reference signal, replicate 2 = 11851. With knock-down of CG14631 [SID104197733], the screen gave firefly Hh reporter signal, replicate 1 = 64258; firefly Hh reporter signal, replicate 2 = 2.67e5; Renilla reference signal, replicate 1 = 1803; Renilla reference signal, replicate 2 = 10876. Silencing of Herc4 [SID104188423] resulted in: firefly Hh reporter signal, replicate 1 = 91644; firefly Hh reporter signal, replicate 2 = 42240; Renilla reference signal, replicate 1 = 3216; Renilla reference signal, replicate 2 = 3284.
